Structures can show the parent of a compound that is named as a salt. For at least one compound, name, drawing or mass did not settle the structure.
Columns and labels:
Type in all cases: physicochemical
[1] = Particle size analysis of micronized APIs by laser diffraction; settings: micronized (jet-milled), dispersed in mineral spirit, dihydrochloride hydrate
Method: Var(HCl)2·xH2O, VarBase, and VarHCl·3H2O were purchased and then micronized using a commercial dry jet-miller. The jet milling was achieved using typical jet milling conditions and a single milling process. As shown in Example 5, micronization leads to partial dehydration of VarHCl·3H2O. As such, following micronization and absent rehydration, the compound is designated as VarHCl·xH2O.
The APIs were dispersed in mineral spirit, and particle size analysis was performed by laser diffraction using a Microtrac×100 Particle Size Analyzer. Particle size span was calculated as
[formula] where Dv0.1, Dv0.5 and Dv0.9 are 10%, 50% and 90% of the volume size distributed below the respective values.

pH titration = settings: one gram dissolved in 15 mL pure H2O, 22.5° C.
[2] = Dynamic vapor sorption (DVS) moisture sorption and desorption; settings: micronized, 20° C.
Method: DVS Analysis: No DVS results of these APIs have been previously reported. Moisture sorption and desorption behavior was assessed using a DVS-Advantage 1 (Surface Measurement Systems, Allentown, Pa.). Experimental parameters: sample % P/Po in a range of 0-80; 5% P/Po increment, equilibrium criteria, both sorption and desorption. Experiments conducted at 20° C.

[3] = Aerosol performance, Next Generation Impactor (NGI) with powder deaggregator and RS01 capsule piercing mechanism; settings: pure drug (100% API), dihydrochloride hydrate
Description: There are several inertia sampling apparatuses that can be used to assess aerosol performance of dry powder formulations. (<601> Aerosols, Nasal Sprays, Metered-Dose Inhalers, and Dry Powder Inhalers Monograph, in USP 29-NF 24 The United States Pharmacopoeia and The National Formulary: The Official Compendia of Standards. 2006, The United States Pharmacopeial Convention, Inc.: Rockville, Md. p. 2617-2636 (“USP<601>”).) These apparatus classify aerosol particles on the basis of the particles' aerodynamic diameter. Each stage of the impactor includes a single or series of nozzles with specific cutoff size. Particles are entrained into the apparatus. Those having sufficient inertia will impact on that particular stage collection plate, while smaller particles with insufficient inertia will remain entrained in the airstream and pass to the next stage where the process is repeated. The aerodynamic size distribution of API can be assessed by collecting the deposited API mass and the ED %, RF %, FPF % and MMAD (μm) can be calculated from the API deposition pattern. The emitted dose fraction (ED (%); Eq. 4) is determined as the percentage powder mass emitted from the initial dosing chamber/capsule relative to the total dose in capsules (nominal dose) (TD). Emitted dose (ED) includes the sum of the API mass […] deposited on the device stages. Fine particle fraction (FPF (%); Eq. 5) is expressed as a percentage of fine particle dose (FPD) below a certain aerodynamic cutoff size to ED. Respirable fraction (RF (%); Eq. 6) is defined as the percentage of FPD to total dose (TD).
Formulation aerosol performance tests were carried out using a powder deaggregator modified from that described in U.S. Patent Publication Nos. 2013/0340754 and 2013/0340747 combined with an off-the-shelf RS01 dry powder inhaler capsule piercing mechanism (Plastiape, IT) feeding method. […] The experiments were conducted at an airflow rate that gave a system pressure drop of 2 kPa (about 40 L/min, 4 L inhalation volume duration: 5.5 sec) or 4 kPa (about 60 L/min, 4 L inhalation volume duration: 3.9 sec).
Packaging: The blends were packaged into size 3 HPMC capsules. Nominal dose amounts of 3 mg were prepared for each formulation; 10 mg nominal doses were also prepared for pure drug VarBase and Var(HCl)2·xH2O formulations.
Methods: Two inertial sampling systems were used to assess aerosol performance: (1) a Next Generation Impactor® (“NGI”) (Copley Scientific, Shoreview, Minn.), and (2) a Twin Stage Liquid Impinge (“TSLI”) (Copley Scientific, Shoreview, Minn.). Aerosol performance of the VarHCl·xH2O formulation was assessed using the TSLI device, while the other formulations were all assessed using the NGI device. The NGI experiments were carried out using methods in general agreement with the USP<601>, and the TSLI experiments were carried using methods in general agreement with the British Pharmacopoeia, 2007, Vol. IV, Appendix XIIF. A291 Aerodynamic assessment of fine particles, fine particle dose and particle size distribution. The NGI experiments were run at a controlled airflow rate that gave a pressure drop of either 2 or 4 kPa across the device. Specifically, at Q=61.4 L/min with a delay time of 3.9 sec; and at Q=43.4 L/min with a delay time of 5.5 sec. Before the aerosol testing, the NGI collection plates were coated with suitable coating. Mass median aerodynamic diameter (MMAD) of aerosol particles distribution was determined based on a log-probability distribution (API particle size versus API deposition percentage) obtained from the NGI data. The TSLI experiments were run at Q=60 L/min, 4 sec to achieve ΔP≈4 kPa, with a cutoff size of 6.4 μm.

For `CCCc1nc(C)c2c(=O)[nH]c(-c3cc(S(=O)(=O)N4CCN(CC)CC4)ccc3OCC)nn12` [Var(HCl)2•xH2O, vardenafil dihydrochloride hydrate], the DV50 [1] was 1.85 μm, the Span [1] was 0.267 and the Span ([1]; listed as Var(HCl)2·xH2O) was 0.27. For the same molecule, the “initial pH” value (pH titration) was 2.15, the “critical relative humidity in desorption” value [2] was 40% and the “critical relative humidity in sorption” value [2] was 70%. For the same molecule, the “moisture sorption and desorption behavior” value ([2]; 0-80% P/Po, dihydrochloride hydrate) was “unstable in normal ambient condition and tends to lose bound water”, the “ED(%)” value ([3]; 3 mg dose) was 26.6% and the “FPF(ED)(%)” value ([3]; 3 mg dose) was 88.5%. For the same molecule, the MMAD ([3]; 3 mg dose) was 0.76 μm, the “RF(%)” value ([3]; 3 mg dose) was 23.5% and the “ED(%)” value ([3]; 10 mg dose) was 24.5%. For the same molecule, the “FPF(ED)(%)” value ([3]; 10 mg dose) was 86.5%, the MMAD ([3]; 10 mg dose) was 0.82 μm and the “RF(%)” value ([3]; 10 mg dose) was 21.2%.

— patent US11806314B2, “PDE5 inhibitor powder formulations and methods relating thereto” (Respira Therapeutics, Inc., priority 2013, dated 2023)
